This is one part of the list.
Assays:
Experiment in all cases: log2 fold change, soluble protein after heating vs DMSO (PISA); higher = thermal stabilisation; K562 cells, 10 uM, 30 min; active = over 0.2 and 3.5 SD of the protein, either way, in both replicates (recomputed)
[1] = compound: CC[C@@H]1C(=O)N(C)c2cnc(Nc3ccc(C(=O)NC4CCN(C)CC4)cc3OC)nc2N1C1CCCC1
In short: (§1)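 Soluble protein was quantified by TMTpro 16plex LC-MS/MS after channel sums were equalised. It was obtained as the supernatant after 21,000xg for 90 min from pooled aliquots of K562 cells (2×10^6 cells/mL, 10 μM compound, 30 min) heated for 3 min across 48°C-58°C and extracted in PBS with 0.5% NP-40 at 4°C. Thermal stability values are relative to control samples and come from duplicates. They are given as log2 fold changes.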

The chains behind the UniProt entries cited, without tags or fusion partners. Where a name states a change or a piece, a line headed by the entry shows the natural chain unless it says otherwise.
UniProt Q8N108: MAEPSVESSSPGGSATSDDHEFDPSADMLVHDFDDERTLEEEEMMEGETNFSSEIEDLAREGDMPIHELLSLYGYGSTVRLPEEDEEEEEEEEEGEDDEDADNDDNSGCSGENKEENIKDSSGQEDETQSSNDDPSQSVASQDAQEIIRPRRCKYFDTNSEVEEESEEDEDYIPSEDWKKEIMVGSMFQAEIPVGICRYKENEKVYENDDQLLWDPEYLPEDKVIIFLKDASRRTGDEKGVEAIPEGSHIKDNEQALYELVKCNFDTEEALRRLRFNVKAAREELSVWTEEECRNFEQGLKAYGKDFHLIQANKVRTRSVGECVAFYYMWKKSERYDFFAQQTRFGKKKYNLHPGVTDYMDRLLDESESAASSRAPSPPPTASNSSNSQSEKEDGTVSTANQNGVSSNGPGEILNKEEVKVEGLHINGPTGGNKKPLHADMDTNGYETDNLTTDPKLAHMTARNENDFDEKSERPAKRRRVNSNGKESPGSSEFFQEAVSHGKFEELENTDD
UniProt Q9UH92: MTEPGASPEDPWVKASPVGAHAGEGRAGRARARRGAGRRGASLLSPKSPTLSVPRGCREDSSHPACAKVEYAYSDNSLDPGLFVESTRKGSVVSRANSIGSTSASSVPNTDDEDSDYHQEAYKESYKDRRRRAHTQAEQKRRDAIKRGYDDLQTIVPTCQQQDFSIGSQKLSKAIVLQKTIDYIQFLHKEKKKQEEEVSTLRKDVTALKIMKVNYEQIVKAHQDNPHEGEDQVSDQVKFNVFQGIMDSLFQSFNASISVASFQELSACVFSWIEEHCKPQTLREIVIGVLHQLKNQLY
UniProt P39210: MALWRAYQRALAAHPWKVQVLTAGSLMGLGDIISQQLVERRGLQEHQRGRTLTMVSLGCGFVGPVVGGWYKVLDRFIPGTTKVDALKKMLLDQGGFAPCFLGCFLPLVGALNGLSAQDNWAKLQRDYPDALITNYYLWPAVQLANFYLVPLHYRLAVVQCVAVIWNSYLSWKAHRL
UniProt Q9H081: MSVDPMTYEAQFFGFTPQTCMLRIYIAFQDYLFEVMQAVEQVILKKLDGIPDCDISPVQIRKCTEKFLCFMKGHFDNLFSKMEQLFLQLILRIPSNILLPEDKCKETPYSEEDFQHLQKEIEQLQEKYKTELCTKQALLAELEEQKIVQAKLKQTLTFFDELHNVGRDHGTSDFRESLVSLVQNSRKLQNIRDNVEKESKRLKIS
UniProt Q8WV92, whole entry, looked up: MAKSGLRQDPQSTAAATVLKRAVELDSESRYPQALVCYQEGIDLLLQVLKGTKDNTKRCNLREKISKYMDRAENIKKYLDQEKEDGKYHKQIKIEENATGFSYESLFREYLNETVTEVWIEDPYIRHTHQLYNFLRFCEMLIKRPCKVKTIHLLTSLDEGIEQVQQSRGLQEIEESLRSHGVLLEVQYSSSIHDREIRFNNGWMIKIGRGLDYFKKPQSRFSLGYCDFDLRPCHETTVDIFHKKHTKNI
UniProt Q99549: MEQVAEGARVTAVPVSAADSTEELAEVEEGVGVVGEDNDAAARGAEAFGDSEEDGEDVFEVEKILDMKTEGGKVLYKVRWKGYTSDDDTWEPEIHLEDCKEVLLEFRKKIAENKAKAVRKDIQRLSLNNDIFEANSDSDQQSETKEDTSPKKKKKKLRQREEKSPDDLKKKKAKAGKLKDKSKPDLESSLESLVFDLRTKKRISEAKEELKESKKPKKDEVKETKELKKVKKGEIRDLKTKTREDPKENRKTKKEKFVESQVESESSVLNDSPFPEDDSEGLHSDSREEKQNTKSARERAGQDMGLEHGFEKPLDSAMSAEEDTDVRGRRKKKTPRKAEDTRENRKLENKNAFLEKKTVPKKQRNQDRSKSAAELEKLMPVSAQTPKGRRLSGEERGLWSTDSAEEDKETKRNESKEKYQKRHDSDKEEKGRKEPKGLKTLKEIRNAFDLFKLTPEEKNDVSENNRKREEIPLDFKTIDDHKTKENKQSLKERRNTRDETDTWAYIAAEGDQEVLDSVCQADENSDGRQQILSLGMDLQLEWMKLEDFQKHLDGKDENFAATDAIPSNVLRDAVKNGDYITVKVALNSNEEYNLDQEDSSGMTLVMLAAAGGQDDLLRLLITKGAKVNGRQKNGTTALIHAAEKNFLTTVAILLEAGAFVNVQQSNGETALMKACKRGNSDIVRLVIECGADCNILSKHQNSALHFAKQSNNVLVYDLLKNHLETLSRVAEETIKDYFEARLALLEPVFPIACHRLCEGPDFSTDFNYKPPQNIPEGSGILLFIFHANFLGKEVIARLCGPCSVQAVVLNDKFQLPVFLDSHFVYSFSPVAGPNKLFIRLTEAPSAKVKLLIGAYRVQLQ
UniProt Q9BU76: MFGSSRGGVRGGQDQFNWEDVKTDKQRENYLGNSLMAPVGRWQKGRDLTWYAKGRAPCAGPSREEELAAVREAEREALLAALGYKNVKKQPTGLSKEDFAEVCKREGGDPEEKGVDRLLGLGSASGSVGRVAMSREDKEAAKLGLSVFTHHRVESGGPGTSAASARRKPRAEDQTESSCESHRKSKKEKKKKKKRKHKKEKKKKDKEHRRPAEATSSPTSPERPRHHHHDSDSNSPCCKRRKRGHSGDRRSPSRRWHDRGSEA
UniProt Q9Y605: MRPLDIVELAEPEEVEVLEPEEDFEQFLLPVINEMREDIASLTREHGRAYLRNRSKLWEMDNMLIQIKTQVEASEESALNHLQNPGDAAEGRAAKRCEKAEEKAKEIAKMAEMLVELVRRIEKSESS

[2] = compound: CC[C@@H]1C(=O)N(C)c2cnc(Nc3ccc(C(=O)N[C@H]4CC[C@H](N5CCN(CC6CC6)CC5)CC4)cc3OC)nc2N1C(C)C [volasertib]
In short: as §1

[3] = compound: CC[C@H](C)N1C=C(C2=C(C=C(C=C21)C3=CN=C(C=C3)N4CCNCC4)C(=O)NCC5=C(C=C(NC5=O)C)C)C
In short: as §1

[4] = compound: CC[C@H](C)[C@@H](C(=O)N[C@@H]([C@@H](C)O)C(=O)N[C@@H](CC(C)C)C(=O)[C@]1(CO1)C)NC(=O)[C@H]([C@@H](C)CC)N(C)C(=O)C [epoxomicin]
In short: as §1

[5] = compound: CCn1cc(-c2ccnc3[nH]c(-c4cccc(CN(C)C)c4)cc23)c(-c2ccc(NC(=O)N(C)C)cc2)n1
In short: as §1

[6] = compound: CN(C)CC(=O)Nc1ccc2[nH]c(=O)c3ccccc3c2c1
In short: as §1

[7] = compound: CN1C2=C(C3=C1C(=O)N(N=C3)CC4=CC(=CC=C4)N)SC(=C2)S(=O)C
In short: as §1

[8] = compound: CN1CCC(CNc2ccc3ncc(-c4cccc(OC(F)(F)F)c4)n3n2)CC1
In short: as §1

[9] = compound: CN1CCN(CCOc2cc(OC3CCOCC3)c3c(Nc4c(Cl)ccc5c4OCO5)ncnc3c2)CC1 [saracatinib]
In short: as §1

[10] = compound: CN1CCN(c2nc(C3=C(c4c[nH]c5ccccc45)C(=O)NC3=O)c3ccccc3n2)CC1 [sotrastaurin]
In short: as §1

[11] = compound: CN1CCc2c(c3ccccc3n2Cc2ccc(C(=O)NO)cc2)C1 [Tubastatin A]
In short: as §1

[12] = compound: CNC(=O)C1=CC=CC=C1NC2=NC(=NC=C2Cl)NC3=C(C=C(C=C3)N4CCOCC4)OC
In short: as §1

[13] = compound: CNC(=O)c1ccc(Nc2ncc(C(F)(F)F)c(NCc3nccnc3N(C)S(C)(=O)=O)n2)cc1 [defactinib]
In short: as §1

[14] = compound: CNCc1ccc(-c2[nH]c3cc(F)cc4c3c2CCNC4=O)cc1 [rucaparib]
In short: as §1

[15] = compound: CNc1nc(-c2ccc3c(N)n[nH]c3c2)cc(N2C[C@@H](C(=O)NC3CCCCC3)CC[C@H]2C)n1
In short: as §1

[16] = compound: COC(=O)N[C@@H](C)CNc1nccc(-c2cn(C(C)C)nc2-c2cc(Cl)cc(NS(C)(=O)=O)c2F)n1 [encorafenib]
In short: as §1

[17] = compound: COC(=O)[C@H](CCSC)NC(=O)C1=C(C=C(C=C1)NC[C@H](CS)N)C2=CC=CC=C2
In short: as §1

[18] = compound: CCn1c(C(=O)N(C2CC2)C2CC2)cc2c3c(ncn3C)c(Nc3cc(C)n(C)n3)nc21
In short: as §1

[19] = compound: CN(CCOC1=CC=C(C=C1)C[C@H]2C(=O)NC(=O)S2)C3=CC=CC=N3 (racemic) [rosiglitazone]
In short: as §1

[20] = compound: CN1CC[C@H](c2c(O)cc(O)c3c(=O)cc(-c4ccccc4Cl)oc23)[C@H](O)C1 [alvocidib]
In short: as §1

Target | log2 fold change [1] | log2 fold change [2] | log2 fold change [3] | log2 fold change [4] | log2 fold change [5] | log2 fold change [6] | log2 fold change [7] | log2 fold change [8] | log2 fold change [9] | log2 fold change [10] | log2 fold change [11] | log2 fold change [12] | log2 fold change [13] | log2 fold change [14] | log2 fold change [15] | log2 fold change [16] | log2 fold change [17] | log2 fold change [18] | log2 fold change [19] | log2 fold change [20]
MRPL46 (UniProt Q9H2W6) | inactive: 0.209 | inactive: 0.302 | inactive: 0.034 | inactive: 0.015 | inactive: -0.04 | inactive: 0.014 | inactive: 0.061 | inactive: 0.12 | inactive: -0.071 | inactive: -0.073 | inactive: 0.037 | active: 0.29 | inactive: 0.043 | inactive: 0.058 | inactive: 0.115 | inactive: 0.045 | inactive: -0.026 |  |  | 
MIER1 isoform 12 (UniProt Q8N108) | inactive: -0.032 | inactive: -0.102 | inactive: 0.066 | inactive: 0.02 | inactive: -0.095 | inactive: -0.033 | inactive: -0.077 | inactive: -0.107 | inactive: 0.026 | inactive: -0.024 | active: 0.297 | inactive: -0.058 | inactive: -0.13 | inactive: -0.01 | inactive: -0.056 | inactive: -0.004 | inactive: 0.017 |  |  | 
MLX (UniProt Q9UH92) | inactive: 0.047 | active: -0.734 | inactive: -0.007 | inactive: 0.162 | inactive: 0 |  | inactive: 0.142 | inactive: -0.315 | inactive: -0.171 | inactive: -0.084 | inactive: 0.075 | inactive: -0.149 |  | inactive: -0.169 | inactive: 0.004 | inactive: 0.149 |  |  |  | 
MRPL47 (UniProt Q9HD33) | inactive: 0.094 | inactive: -0.038 | inactive: 0.044 | inactive: 0.061 | inactive: 0.235 | inactive: -0.036 | inactive: 0.071 | inactive: -0.325 | inactive: -0.168 | inactive: -0.024 | inactive: 0.081 | inactive: -0.028 | inactive: 0.151 | inactive: -0.122 | inactive: 0.17 | inactive: 0.063 | inactive: -0.022 |  |  | 
MPV17 (UniProt P39210) | inactive: 0.156 | inactive: 0.016 | inactive: -0.124 | inactive: 0.177 | inactive: -0.081 |  |  | inactive: 0.119 |  | inactive: 0.054 | inactive: -0.055 | inactive: 0.203 |  | inactive: -0.102 |  | inactive: -0.022 |  | inactive: 0.1 | inactive: 0 | inactive: -0.031
MIS12 (UniProt Q9H081) | inactive: -0.072 | active: -0.36 | inactive: 0.012 | inactive: 0.026 | inactive: -0.007 | inactive: 0.055 | inactive: -0.107 | inactive: -0.039 | inactive: 0.04 | inactive: -0.014 | inactive: 0.031 | inactive: 0.002 | inactive: -0.143 | inactive: 0.021 | inactive: -0.006 | inactive: 0.021 | inactive: -0.052 |  |  | 
MIEF1 (UniProt L0R8F8) | inactive: -0.028 | inactive: -0.076 | inactive: -0.106 | inactive: 0.022 | inactive: -0.065 | inactive: -0.018 | inactive: -0.028 | inactive: -0.021 | inactive: -0.068 | inactive: -0.008 | inactive: 0.041 | inactive: 0.008 | inactive: -0.003 | inactive: 0.024 | inactive: -0.074 | inactive: 0.008 | inactive: 0.015 |  |  | 
MITD1 (UniProt Q8WV92) | inactive: -0.16 | inactive: -0.266 | inactive: 0.077 | inactive: 0.147 | inactive: 0.057 | inactive: 0.049 | inactive: 0.079 | inactive: -0.365 | inactive: -0.031 | inactive: -0.002 | inactive: 0.161 | inactive: -0.146 | inactive: 0.133 | inactive: 0.097 | inactive: -0.112 | inactive: -0.018 | inactive: -0.043 |  |  | 
MPHOSPH8 isoform 2 (UniProt Q99549) |  | inactive: 0.012 |  | inactive: 0.16 |  | inactive: -0.093 | inactive: 0.058 |  | inactive: 0.088 | inactive: 0.018 | inactive: 0 |  | inactive: 0.015 |  | inactive: -0.064 |  | inactive: 0.013 |  |  | 
MMTAG2 (UniProt Q9BU76) | inactive: 0.088 | inactive: 0.306 | inactive: 0.004 |  | inactive: 0.251 | inactive: -0.052 | inactive: 0.199 | inactive: 0.106 | inactive: -0.015 | inactive: -0.018 | inactive: 0.121 | inactive: 0.003 | inactive: 0.304 | inactive: 0.138 | inactive: -0.072 | inactive: 0.014 | inactive: -0.054 | inactive: 0.024 | inactive: -0.306 | inactive: 0.158
MRFAP1 (UniProt Q9Y605) | inactive: -0.107 | inactive: -0.386 | inactive: 0 |  | inactive: 0.022 | inactive: 0.242 | inactive: -0.08 | inactive: -0.032 | inactive: -0.118 | inactive: 0.102 | inactive: 0.329 | inactive: -0.003 | inactive: -0.051 | inactive: -0.099 | inactive: -0.002 | inactive: 0.141 | inactive: -0.027 |  |  | 
